In paper PMC11434109, “VIK‐Mediated Auxin Signaling Regulates Lateral Root Development in Arabidopsis” (Advanced Science, 2024):
These are yes or no findings as the source states them, for the method shown. A result given as binding can be weak or reduced; the word gives no strength. Sequences can lack the tags named with a protein.

Sequences of proteins named here, by UniProt entry; tags and fusion partners are left off. A change or cut given only in a name is not applied to a line headed by its entry.
UniProt P43298: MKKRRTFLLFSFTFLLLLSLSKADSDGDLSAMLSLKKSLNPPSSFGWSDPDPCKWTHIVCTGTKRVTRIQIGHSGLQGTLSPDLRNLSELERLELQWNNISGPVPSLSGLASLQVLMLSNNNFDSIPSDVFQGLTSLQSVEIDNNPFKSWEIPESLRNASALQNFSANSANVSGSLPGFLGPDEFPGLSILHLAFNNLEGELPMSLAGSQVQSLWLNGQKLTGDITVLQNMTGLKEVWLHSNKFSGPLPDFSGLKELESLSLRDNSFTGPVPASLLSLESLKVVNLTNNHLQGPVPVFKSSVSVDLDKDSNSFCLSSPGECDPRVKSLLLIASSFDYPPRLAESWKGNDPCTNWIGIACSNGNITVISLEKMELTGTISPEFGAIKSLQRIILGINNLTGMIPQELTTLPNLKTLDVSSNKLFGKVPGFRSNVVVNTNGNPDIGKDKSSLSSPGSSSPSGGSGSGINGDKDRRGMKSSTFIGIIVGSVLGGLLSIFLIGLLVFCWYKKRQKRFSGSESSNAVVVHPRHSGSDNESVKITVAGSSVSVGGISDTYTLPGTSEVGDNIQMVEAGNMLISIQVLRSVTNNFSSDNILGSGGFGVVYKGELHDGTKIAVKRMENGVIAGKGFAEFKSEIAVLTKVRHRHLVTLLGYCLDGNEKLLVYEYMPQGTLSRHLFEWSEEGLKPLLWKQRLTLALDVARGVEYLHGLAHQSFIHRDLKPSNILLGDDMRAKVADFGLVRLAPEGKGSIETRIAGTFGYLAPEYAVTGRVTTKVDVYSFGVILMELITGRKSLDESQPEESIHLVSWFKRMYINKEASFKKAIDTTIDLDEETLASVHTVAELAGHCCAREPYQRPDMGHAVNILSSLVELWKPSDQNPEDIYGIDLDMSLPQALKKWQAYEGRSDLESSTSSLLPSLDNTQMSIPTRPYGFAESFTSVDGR

Target: T1, VH1-… Kinase (VIK) in pGBKT7 (BD-VIK) (Arabidopsis) (UniProt Q9XI87)
T1 sequence: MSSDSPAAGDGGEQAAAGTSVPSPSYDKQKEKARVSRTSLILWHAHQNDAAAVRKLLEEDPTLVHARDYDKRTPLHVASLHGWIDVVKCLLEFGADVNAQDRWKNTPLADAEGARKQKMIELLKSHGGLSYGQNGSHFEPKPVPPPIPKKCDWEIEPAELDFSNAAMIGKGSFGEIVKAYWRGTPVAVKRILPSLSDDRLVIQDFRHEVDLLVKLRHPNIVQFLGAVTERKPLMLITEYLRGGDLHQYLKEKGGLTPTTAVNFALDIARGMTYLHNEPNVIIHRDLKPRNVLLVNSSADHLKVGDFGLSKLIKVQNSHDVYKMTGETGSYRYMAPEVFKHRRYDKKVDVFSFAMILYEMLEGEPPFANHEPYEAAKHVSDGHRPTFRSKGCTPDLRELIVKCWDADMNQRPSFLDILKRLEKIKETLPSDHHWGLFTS
Assay: two-hybrid; pGADT7 (AD) and pGBKT7 (BD) fusions in AH109 yeast; growth on SD/-Leu/-Trp/-His or SD/-Leu/-Trp/-His/-Ade; autoactivation inhibited by 3-AT (25 mM for VIK-ERF13)

binding: binds
Substance: TMK1 kinase domain in pGADT7 (AD-TMK1 kinase domain) (from UniProt P43298) (domain or fragment)
